This note sets out measurements from patent publication US4954637A, “Certain maleimide-N-alkylenecarboxylate-ortho-nitrobenzenesulfonic acid esters and derivatives useful for coupling biological materials” (Cetus Corporation, priority 1987, dated 1990).

Each structure is given as a SMILES string.

This data set concerns avidin. As to conditions: in 30 minutes; 27 amino groups per avidin.

As for `O=C(CCCCCN1C(=O)C=CC1=O)Oc1ccc(S(=O)(=O)O)cc1[N+](=O)[O-]` [mal-sac-HNSA, N-maleimido-6-aminocaproylHNSA], the “amino groups of avidin reacted with the ester” value worked out at 13.5 amino groups.
